Results: publication PMC3327649
These are yes or no findings as the source states them, for the method shown. In cells and extracts the contact can be indirect. Binding can be weak; no strength is given. For part of these data: Sequences can lack the tags named with a protein. One block for each molecule: values may come before it.

Amino acid sequences for entries named in this document (tags omitted). A change or cut given only in a name is not applied to a line headed by its entry.
UniProt P67774: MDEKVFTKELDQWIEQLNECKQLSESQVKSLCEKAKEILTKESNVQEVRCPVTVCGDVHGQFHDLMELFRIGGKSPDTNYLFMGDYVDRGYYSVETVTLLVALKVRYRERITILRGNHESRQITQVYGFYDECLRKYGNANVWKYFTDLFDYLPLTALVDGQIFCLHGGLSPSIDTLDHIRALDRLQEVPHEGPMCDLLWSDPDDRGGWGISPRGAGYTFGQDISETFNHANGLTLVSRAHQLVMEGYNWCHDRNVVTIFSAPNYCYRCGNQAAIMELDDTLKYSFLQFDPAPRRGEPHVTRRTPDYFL

Tests used:
[1] = target: T1, GST-tagged wild-type EBP50 (bovine) (UniProt Q3SZK8); assay: pull-down; GST-EBP50 (or GST) coupled to glutathione Sepharose incubated with BPAEC lysate for 2 h at 4°C; washed with PBS, eluted with 10 mM glutathione; Western blot with PP2A A, B, B′ or C specific antibodies; only the target purified
T1 sequence: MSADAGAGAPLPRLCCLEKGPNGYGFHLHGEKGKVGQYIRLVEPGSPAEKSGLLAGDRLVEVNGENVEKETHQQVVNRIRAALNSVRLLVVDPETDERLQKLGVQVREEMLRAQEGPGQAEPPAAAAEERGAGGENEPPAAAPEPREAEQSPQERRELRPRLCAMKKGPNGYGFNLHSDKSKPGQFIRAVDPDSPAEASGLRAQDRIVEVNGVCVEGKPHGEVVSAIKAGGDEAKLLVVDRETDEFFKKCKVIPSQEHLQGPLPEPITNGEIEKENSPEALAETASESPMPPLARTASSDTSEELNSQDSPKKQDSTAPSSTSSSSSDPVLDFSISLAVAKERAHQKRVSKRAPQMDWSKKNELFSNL

[2] = target: T2, Ezrin-radixin-moesin (ERM)-binding phosphoprotein 50 (EBP50), endogenous in BPAEC (bovine (endogenous in BPAEC)) (UniProt Q3SZK8); assay: co-IP; endogenous EBP50 immunoprecipitated with anti-EBP50 antibody and protein G Sepharose from lysates of asynchronized, thymidine (early S) or nocodazole (mitotic) treated BPAEC; IP buffer 20 mM Tris HCl pH 7.4, 150 mM NaCl, 2 mM EDTA, 2 mM sodium vanadate, 1% Nonidet P-40, 4°C; Western blot for phosphatase subunits
T2 sequence: T1 sequence

[3] = target: Protein phosphatase 2A C subunit (PP2Ac), endogenous in BPAEC (bovine (endogenous in BPAEC)) (UniProt P67774); assay: co-IP; endogenous PP2A C subunit immunoprecipitated with anti-PP2Ac antibody and protein G Sepharose from lysates of thymidine or nocodazole treated BPAEC; same IP buffer, 4°C; Western blot for EBP50

binding [1]: binds
binding [2]: binds
Molecule: Protein phosphatase 2A C subunit (PP2Ac), endogenous in BPAEC (from UniProt P67774) (enzyme)

binding [1]: binds
binding [2]: binds
Molecule: Protein phosphatase 2A A subunit (PP2Aa), endogenous in BPAEC (bovine (endogenous in BPAEC))

binding [1]: no binding
Molecule: Protein phosphatase 2A B′ subunit, endogenous in BPAEC (bovine (endogenous in BPAEC))

binding [3]: binds
B1: Ezrin-radixin-moesin (ERM)-binding phosphoprotein 50 (EBP50), endogenous in BPAEC (protein, UniProt Q3SZK8 1-368)
chain: T1 sequence
